Source: patent US20010011078A1 (University of Texas, published 2001)
These are yes or no findings as the source states them, for the method shown. In cells and extracts the contact can be indirect. Some binding calls cover weakened binding; strength is not graded here. Tags and fused reporters may be left off the sequences shown.

Target: T1, recombinant DFF40 tagged with six histidine at its C-terminus (human) (UniProt O76075)
T1 sequence: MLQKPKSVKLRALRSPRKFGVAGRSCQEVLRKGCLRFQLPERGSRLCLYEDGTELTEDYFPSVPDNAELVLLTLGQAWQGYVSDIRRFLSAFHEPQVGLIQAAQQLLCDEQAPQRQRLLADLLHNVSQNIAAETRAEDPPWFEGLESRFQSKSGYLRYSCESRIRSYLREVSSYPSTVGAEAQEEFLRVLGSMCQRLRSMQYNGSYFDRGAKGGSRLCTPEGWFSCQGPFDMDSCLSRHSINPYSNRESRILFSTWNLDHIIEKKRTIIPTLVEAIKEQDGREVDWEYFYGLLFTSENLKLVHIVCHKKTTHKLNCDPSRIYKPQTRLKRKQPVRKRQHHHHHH
Test: co-purification of untagged DFF45 with C-terminally His-tagged DFF40 on a nickel affinity column (E. coli co-expression)

B1: DFF45 (45-kDa subunit of DNA fragmentation factor), native human protein (other)
chain: MEVTGDAGVPESGEIRTLKPCLLRRNYSREQHGVAASCLEDLRSKACDILAIDKSLTPVTLVLAEDGTIVDDDDYFLCLPSNTKFVALASNEKWAYNNSDGGTAWISQESFDVDETDSGAGLKWKNVARELKEDLSSIILLSEEDLQMLVDAPCSDLAQELRQSCATVQRLQHTLQQVLDQREEVRQSKQLLQLYLQALEKEGSLLSKQEESKAAFGEEVDAVDTGMSRETSSDVALASHILTALREKQAPELSLSSQDLELVTKEDPKALAVALNWDIKKTETVQEACERELALRLQQTQSLHSLRSISASKASPPGDLQNPKRARQDPT
notes: Native protein, purified from HeLa S-100 as part of the DFF heterodimer, or endogenous in 293 and U937 cell extracts; also called 45-kDa polypeptide; endogenous protein
B1 was tested, and the binding was “binds”.
